The other results are listed elsewhere or left out. Further columns of the screen follow, without active or inactive calls. Compounds called inactive in the main read-out are mostly missing here. Potencies come from curve fits of mixed quality, noted in brackets.

A short description of this assay: qHTS Assay for Lipid Storage Modulators in Drosophila S3 Cells.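 As to cell number change: cells counted by Cell Tracker Red CMTPX staining in the red channel.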 As to conditions: BODIPY lipid droplet fluorescence, 18-24 h; for cell number change: measured here: cell count max response, cells fed with added oleic acid. A digest of the protocol:
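Drosophila S3 cells got compounds at several concentrations plus oleic acid (400 uM solution). Laser-scanning cytometry with 488 nm excitation read lipid droplets at 500-530 nm and cells at 575-640 nm. Percent activity was relative to 20 uM Triacsin C.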
Background: In qHTS, concentration-response curves come from the screen itself.

The mark [1] stands for this setting: measured here: lipid fluorescence (Fed channel) AC50, cells fed with added oleic acid.
The mark [2] stands for this setting: measured here: cell number channel AC50, cells fed with added oleic acid.

A word on the AC50: it is the concentration at which the activity in the assay is half-maximal. Read a low AC50 as greater potency. `N#C/C(=C\c1ccccc1)C(=O)NCc1ccc(F)cc1`: the cell number change was found to be 14%. In addition, under setting [1], the AC50 is 29.1 µM [falling, single point].

For `COc1ccc2no[n+]([O-])c2c1`, the cell number change is -12.5%. Further, the AC50 under setting [2] was 0.00461 µM [falling, full curve, poor fit].

`O=C1c2ccccc2C(=O)N1c1ccccc1S(=O)C(F)(F)F` (stereo not given): the cell number change was found to be 19.2%. For the same compound, the AC50 under setting [2] was 0.0411 µM [rising, full curve, poor fit]. Moreover, the AC50 under setting [1] is 0.00517 µM [falling, full curve, poor fit].

With `COC(=O)c1ccc(C)c(NC(=O)CSc2sc3c(O)cc(=O)[nH]c3c2C#N)c1`, the cell number change is 18.3%.

In the case of `COc1ccc(N(CC(=O)NC2CCCC2)C(=O)Cn2nnc(-c3ccc(C)cc3)n2)cc1OC`, the cell number change is -13.3%. The AC50 under setting [1] was 29.1 µM [rising, single point].

With `O=[N+]([O-])c1cc([N+](=O)[O-])c(N2CCOCC2)cc1NCc1ccccc1`, the cell number change is 91.2%. Besides, the AC50 under setting [2] was 18.4 µM [rising, single point].

Take `COc1ccc(CN2CCN(C(=O)c3ccc(S(=O)(=O)NCc4ccco4)cc3)CC2)cc1F`: the cell number change amounted to 50.6%. Moreover, the AC50 under setting [2] was 14.6 µM [rising, partial curve].

For `O=C(CSc1ccccn1)N/N=C/c1c[nH]c2ccccc12`, the cell number change was 9.29%.

Take `COc1ccc(-c2[nH]c(-c3ccc4c(c3)OCO4)nc2-c2ccccc2)cc1`: the cell number change was -12.5%. Besides, under setting [1], the AC50 is 29.1 µM [rising, single point].

For the compound `Oc1ccc(N=Nc2ccc3c(c2)OCCO3)c2ncccc12`, the cell number change was -57.8%. Moreover, the half-maximal activity concentration (AC50) under setting [2] is 29.1 µM [falling, single point]. For the same compound, the AC50 under setting [1] was 32.6 µM [falling, single point].

Turning to `FC(F)(F)c1nnc2c(Sc3ccccc3)nc3ccc(Cl)cc3n12`, the AC50 under setting [1] was 0.58 µM [rising, single point].

With `C[C@H]1CN=C(N(C)C)N1CCc1ccc(F)cc1`, the cell number change is -3.17%. Further, under setting [1], the AC50 is 29.1 µM [rising, single point].

On to `COc1ccc2c(C)cc(SCC(=O)Nc3cc(C(N)=O)cc(C(N)=O)c3)nc2c1`, for which the cell number change was -53.8%. For the same compound, the AC50 under setting [1] is 29.1 µM [falling, single point].

Turning to `CC(=O)c1ccc2c(c1)N(CCCN1CCC(CCO)CC1)c1ccccc1S2`, the cell number change was found to be 6.24%. The AC50 under setting [1] was 2.91 µM [rising, partial curve, poor fit].

In the case of `O=C(NC(=S)Nc1ccc2oc(=O)ccc2c1)c1cc2ccccc2o1`, the cell number change is 22.8%. In addition, under setting [1], the AC50 was 6.51 µM [rising, full curve].

For `CCOC(=O)c1sc2nc(C)n(N)c(=O)c2c1C`, the cell number change was 28.3%.

Regarding `CSc1nnc(-c2ccc(S(=O)(=O)N3CCCCC3)cc2)o1`, the cell number change is 3.97%. Also, under setting [2], the AC50 is 1.3 µM [rising, partial curve].

On to `O=C(O)c1cccc(Nc2ccc([N+](=O)[O-])c3nonc23)c1`, for which the cell number change worked out at 11.7%. Further, under setting [1], the AC50 is 16.4 µM [rising, single point].

Consider `COc1ccc2c(c1)OC[C@H]1[C@H]2N2C(=O)c3cc(Cl)ccc3NC(=O)[C@@]2(C)[C@H]1c1ccccc1`, for which the cell number change is 5.81%.

As to `O=C(C1CCN(S(=O)(=O)c2cccs2)CC1)N1CCN(Cc2ccccc2)CC1`, the cell number change amounted to 6.8%.

Regarding `O=C(Cc1ccc([N+](=O)[O-])cc1)OCc1c(F)cccc1Cl`, the cell number change was -8.45%. Moreover, the half-maximal activity concentration (AC50) under setting [1] was 6.51 µM [falling, single point].

For the compound `CCOC(=O)c1c(C)[nH]c(C)c1C(=O)CSc1nncs1`, the AC50 under setting [2] is 0.461 µM [rising, full curve].

For the compound `COc1cc(OC)c(CN2CCN(c3ccc(F)cc3)CC2)cc1Br`, the cell number change was determined as 9.03%. In addition, the AC50 under setting [1] was 29.1 µM [rising, single point].

`CCCn1c(NC(=O)C23CC4CC(CC(O)(C4)C2)C3)nc2ccccc21`: the AC50 under setting [1] is 0.13 µM [rising, full curve, poor fit].

As to `Cc1ccc(C(=O)C2=C(O)C(=O)N(c3ncccn3)C2c2ccc(F)cc2)o1` (stereo not given), the cell number change came out at 36.5%. For the same compound, the concentration at half-maximal activity (AC50) under setting [2] is 23.1 µM [rising, single point]. Further, the AC50 under setting [1] is 20.6 µM [rising, partial curve].

Take `COc1ccc(N2CC(C(=O)N[C@@H](C)C(=O)NC3CCCC3)CC2=O)cc1` (stereo not given in full): the cell number change was found to be 41%. The AC50 under setting [2] was 1.16 µM [rising, partial curve]. For the same compound, the AC50 under setting [1] is 29.1 µM [rising, single point].

Regarding `Cc1ccc(OCC(=O)N/N=C\c2ccc(O)cc2)c([N+](=O)[O-])c1`, the cell number change came to 25%.

With `CC(=O)Nc1ccc2c(c1)nc1n2CCN(C(C)c2ccccc2)C1` (stereo not given), the cell number change was 6.25%. For the same compound, the AC50 under setting [1] was 2.91 µM [rising, single point].

As to `CC(=O)Nc1ccc(S(=O)(=O)NCCC(=O)OCC(=O)c2cc(C)ccc2C)cc1`, the cell number change amounted to 27%. The AC50 under setting [1] is 0.731 µM [rising, partial curve].

Consider `COc1ccc(Br)c(C(=O)OCC(=O)NC2CCCCCC2)c1`, for which the cell number change was -25.7%. The AC50 under setting [1] was 6.51 µM [falling, partial curve, poor fit].

For the compound `O=C(c1ccccc1NS(=O)(=O)c1ccc(Br)s1)N1CCCC1`, the cell number change was -16.4%.

In the case of `O=C(c1cc2cc(Br)ccc2o1)N1CCCCC1`, the cell number change was 15.3%. Besides, the AC50 under setting [2] is 1.16 µM [falling, full curve]. For the same compound, the AC50 under setting [1] was 0.651 µM [falling, full curve].

As for `CN1CC=C2C(C#N)=C(N)C(C#N)(C#N)[C@H](c3cccc(Cl)c3)C2C1` (stereo not given in full), the cell number change stood at 59.8%. Also, the AC50 under setting [2] was 0.731 µM [rising, full curve]. Moreover, the concentration at half-maximal activity (AC50) under setting [1] was 0.82 µM [rising, full curve].

Consider `CC(C)NS(=O)(=O)c1ccc(OCC(=O)N(C)Cc2ccccc2)cc1`, for which the cell number change was -14.3%. The AC50 under setting [1] was 6.51 µM [falling, partial curve].

On to `C=CCc1c(C)nc(SC)nc1Nc1ccccc1`, for which the cell number change is -4.85%. Under setting [2], the AC50 was 0.291 µM [falling, partial curve]. Also, the AC50 under setting [1] is 0.82 µM [falling, partial curve].

Consider `CCCCCCN1C=CC(=C/C=C(\C#N)C(=O)OCC)C=C1`, for which the cell number change was -10.8%. Besides, under setting [2], the AC50 was 2.59 µM [rising, partial curve, poor fit]. Also, the AC50 under setting [1] is 20.6 µM [falling, single point].

With `COc1ccc(CCN(C)C(=O)C23CC4CC(CC(Cl)(C4)C2)C3)cc1OC`, the cell number change is -3.18%. Moreover, the concentration at half-maximal activity (AC50) under setting [2] was 0.259 µM [rising, partial curve, poor fit]. Further, the AC50 under setting [1] was 29.1 µM [rising, single point].

As to `CCC1CN(C(=O)N2CCC(C(=O)NCc3ccco3)CC2)c2ccccc2O1` (stereo not given), the cell number change is -0.885%. Also, the AC50 under setting [1] is 29.1 µM [rising, single point].

Source of the values: PubChem BioAssay AID2685 (National Center for Advancing Translational Sciences (NCATS), 2010).
